Measured data: PubChem BioAssay AID1259254 (NCATS, 2017)
Here is one part, drawn at random, of about 59,000 reagents. Of all reagents, about 1,550 (2.6%) were called active. 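G2 share is only a proxy for re-replication; each gene was hit by three separate siRNAs, and active genes were retested.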 Reagents against one gene are numbered here. Further read-outs or replicates are left out here. The record does not give: the amount of reagent.

- Assay: 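Genome-wide screen for genes that prevent DNA re-replication in cancer cells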 (primary screen)
- Cell system: human HCT116 colorectal cancer cells
- Knock-down reagent: single siRNA against human genes
- Duration: 3 days
- Measured: 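Nuclei stained with Hoechst and imaged; cell-cycle phase assigned by DNA content; G2 share scaled per plate, non-targeting siRNA 0%, GMNN siRNA 100%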
- Direction: G2 robust z-score and G2 cells, % of GMNN control: higher = more G2 cells, more excess DNA replication
- Hit rule: 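An siRNA counts as active if its G2 robust z-score lies at least 5 MADs above the screen median; here such calls match roughly 38% of GMNN control or more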

How did the screen score SERPINB12 #1?
G2 robust z-score: -0.173; G2 cells, % of GMNN control: 1.75; Outcome: inactive

What did the screen give for SERPINB12 #2?
G2 robust z-score: -0.883; G2 cells, % of GMNN control: -3.24; Outcome: inactive

Which result is listed for SERPINB12 #3?
G2 robust z-score: 1.11; G2 cells, % of GMNN control: 10.8; Outcome: inactive

For NONO #1, how do the results read?
G2 robust z-score: 1.8; G2 cells, % of GMNN control: 15.6; Outcome: inactive

With NONO #2, what was measured?
G2 robust z-score: -0.536; G2 cells, % of GMNN control: -0.803; Outcome: inactive

For NONO #3, how do the results read?
G2 robust z-score: 2.05; G2 cells, % of GMNN control: 17.4; Outcome: inactive

Sorted by “G2 robust z-score” (high to low): some entries from above.
SERPINB12 #1 — G2 robust z-score = -0.173; G2 cells, % of GMNN control = 1.75; Outcome = inactive
SERPINB12 #2 — G2 robust z-score = -0.883; G2 cells, % of GMNN control = -3.24; Outcome = inactive

More reagents follow.
What did the screen give for ACACB #1?
G2 robust z-score: 0.0706; G2 cells, % of GMNN control: 3.46; Outcome: inactive

What is on record for ACACB #2?
G2 robust z-score: -0.506; G2 cells, % of GMNN control: -0.591; Outcome: inactive

What is on record for ACACB #3?
G2 robust z-score: -0.97; G2 cells, % of GMNN control: -3.86; Outcome: inactive

With CEP164 #1, what was measured?
G2 robust z-score: -0.648; G2 cells, % of GMNN control: -1.59; Outcome: inactive

With CEP164 #2, what was measured?
G2 robust z-score: -0.476; G2 cells, % of GMNN control: -0.381; Outcome: inactive

For CEP164 #3, how do the results read?
G2 robust z-score: 0.829; G2 cells, % of GMNN control: 8.8; Outcome: inactive
